How the values were obtained:
mice [1] = format: in vivo, mouse; conditions: Atropine 2.5-10 mg/kg
mice [2] = format: in vivo, mouse; conditions: Atropine 0.25-1 mg/kg; Naloxone 1.25-5 mg/kg

SMILES: CN1[C@@H]2CC[C@H]1C[C@@H](OC(=O)C(CO)c1ccccc1)C2 (some centres unmarked) [Atropine]
- effect on Crotoxin-induced analgesia, acetic acid-writhing test (mice [1]): no significant effect
- effect on Crotoxin-induced analgesia, hotplate test (mice [2]): no significant effect
